This is an account of results in the supplement of paper PMC7666118.

By UniProt entry, the sequences of proteins in these tests, tags left out. Where a name states a change or a piece, a line headed by the entry shows the natural chain unless it says otherwise.
UniProt Q9NRN9: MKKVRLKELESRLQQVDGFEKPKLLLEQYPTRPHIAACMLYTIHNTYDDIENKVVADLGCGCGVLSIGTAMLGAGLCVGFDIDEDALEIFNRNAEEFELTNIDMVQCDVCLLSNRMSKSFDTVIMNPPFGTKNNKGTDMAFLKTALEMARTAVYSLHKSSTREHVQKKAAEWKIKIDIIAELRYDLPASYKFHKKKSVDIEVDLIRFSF
UniProt Q9Y4U1: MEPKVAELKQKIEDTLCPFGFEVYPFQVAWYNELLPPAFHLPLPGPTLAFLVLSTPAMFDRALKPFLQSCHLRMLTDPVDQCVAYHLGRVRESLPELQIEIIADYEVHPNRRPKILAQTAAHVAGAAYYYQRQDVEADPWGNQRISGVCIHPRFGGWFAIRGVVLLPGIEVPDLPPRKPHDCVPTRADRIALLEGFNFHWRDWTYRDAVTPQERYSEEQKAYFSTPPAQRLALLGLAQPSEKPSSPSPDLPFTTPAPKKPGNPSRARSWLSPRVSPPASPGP
UniProt Q9H8S9: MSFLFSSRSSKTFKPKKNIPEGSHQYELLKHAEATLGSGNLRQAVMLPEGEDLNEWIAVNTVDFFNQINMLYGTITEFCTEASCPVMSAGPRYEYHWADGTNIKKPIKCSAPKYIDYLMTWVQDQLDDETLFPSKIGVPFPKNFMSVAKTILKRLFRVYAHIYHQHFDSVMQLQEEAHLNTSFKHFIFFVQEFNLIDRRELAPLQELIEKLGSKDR
UniProt P82909: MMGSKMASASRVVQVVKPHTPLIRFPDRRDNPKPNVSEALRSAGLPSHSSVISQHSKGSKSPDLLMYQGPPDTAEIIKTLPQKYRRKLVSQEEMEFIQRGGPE
UniProt Q86W50: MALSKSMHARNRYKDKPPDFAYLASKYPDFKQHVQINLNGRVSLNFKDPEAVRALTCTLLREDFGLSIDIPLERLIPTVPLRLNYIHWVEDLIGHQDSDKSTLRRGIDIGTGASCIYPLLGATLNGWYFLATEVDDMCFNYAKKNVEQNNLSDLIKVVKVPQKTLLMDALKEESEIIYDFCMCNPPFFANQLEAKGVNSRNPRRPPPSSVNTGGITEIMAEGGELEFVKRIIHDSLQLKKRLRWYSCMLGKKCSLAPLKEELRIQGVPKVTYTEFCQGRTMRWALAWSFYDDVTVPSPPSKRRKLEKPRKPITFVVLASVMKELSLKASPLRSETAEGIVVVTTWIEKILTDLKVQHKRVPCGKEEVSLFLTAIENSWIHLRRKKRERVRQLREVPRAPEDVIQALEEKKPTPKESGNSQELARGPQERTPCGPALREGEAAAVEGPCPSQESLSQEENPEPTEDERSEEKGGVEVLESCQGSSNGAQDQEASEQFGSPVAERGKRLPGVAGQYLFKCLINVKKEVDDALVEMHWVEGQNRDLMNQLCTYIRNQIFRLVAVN
UniProt Q7Z3U7: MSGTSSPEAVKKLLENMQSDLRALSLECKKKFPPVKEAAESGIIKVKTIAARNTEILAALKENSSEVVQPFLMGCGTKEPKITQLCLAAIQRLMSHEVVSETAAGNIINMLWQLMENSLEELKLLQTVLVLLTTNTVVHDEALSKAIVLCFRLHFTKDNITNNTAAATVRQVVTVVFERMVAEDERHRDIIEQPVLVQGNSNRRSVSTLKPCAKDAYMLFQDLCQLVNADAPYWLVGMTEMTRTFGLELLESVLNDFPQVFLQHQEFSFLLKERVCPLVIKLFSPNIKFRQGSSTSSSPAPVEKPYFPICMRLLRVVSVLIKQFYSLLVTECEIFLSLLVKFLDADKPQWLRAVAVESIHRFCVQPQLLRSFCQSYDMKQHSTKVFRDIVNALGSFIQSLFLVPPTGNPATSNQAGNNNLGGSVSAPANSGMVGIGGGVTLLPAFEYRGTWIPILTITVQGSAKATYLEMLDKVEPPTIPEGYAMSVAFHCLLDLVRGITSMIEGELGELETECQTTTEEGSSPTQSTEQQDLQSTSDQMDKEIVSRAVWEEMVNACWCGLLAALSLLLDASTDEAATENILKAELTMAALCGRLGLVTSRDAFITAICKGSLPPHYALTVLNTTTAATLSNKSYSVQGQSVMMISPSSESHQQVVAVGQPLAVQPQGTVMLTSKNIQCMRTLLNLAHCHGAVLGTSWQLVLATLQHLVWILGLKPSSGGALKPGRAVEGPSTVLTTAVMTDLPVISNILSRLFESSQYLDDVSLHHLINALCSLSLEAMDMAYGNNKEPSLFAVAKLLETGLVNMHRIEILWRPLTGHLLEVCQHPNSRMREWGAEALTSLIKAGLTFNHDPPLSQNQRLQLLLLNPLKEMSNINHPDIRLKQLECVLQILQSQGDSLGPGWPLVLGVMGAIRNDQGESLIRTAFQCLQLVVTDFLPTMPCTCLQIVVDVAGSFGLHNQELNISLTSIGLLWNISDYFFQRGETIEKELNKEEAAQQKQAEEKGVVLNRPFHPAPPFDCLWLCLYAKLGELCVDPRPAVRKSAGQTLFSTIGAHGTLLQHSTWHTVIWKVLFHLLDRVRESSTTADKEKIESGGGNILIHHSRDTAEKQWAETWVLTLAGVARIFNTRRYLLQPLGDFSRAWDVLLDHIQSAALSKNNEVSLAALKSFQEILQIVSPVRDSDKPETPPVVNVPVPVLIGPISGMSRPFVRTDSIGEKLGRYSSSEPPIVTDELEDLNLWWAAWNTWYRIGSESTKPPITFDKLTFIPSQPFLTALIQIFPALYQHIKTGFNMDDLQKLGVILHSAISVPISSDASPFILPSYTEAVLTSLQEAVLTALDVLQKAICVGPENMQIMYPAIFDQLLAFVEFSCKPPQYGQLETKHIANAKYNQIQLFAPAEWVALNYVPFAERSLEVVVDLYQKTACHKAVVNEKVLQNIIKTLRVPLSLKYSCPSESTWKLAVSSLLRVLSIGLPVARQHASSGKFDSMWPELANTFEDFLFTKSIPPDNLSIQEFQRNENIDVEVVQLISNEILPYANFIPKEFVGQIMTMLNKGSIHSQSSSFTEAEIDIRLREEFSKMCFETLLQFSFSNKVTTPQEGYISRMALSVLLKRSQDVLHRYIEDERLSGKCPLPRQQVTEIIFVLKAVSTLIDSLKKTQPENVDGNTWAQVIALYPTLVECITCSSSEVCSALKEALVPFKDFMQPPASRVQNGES
UniProt Q8NB16: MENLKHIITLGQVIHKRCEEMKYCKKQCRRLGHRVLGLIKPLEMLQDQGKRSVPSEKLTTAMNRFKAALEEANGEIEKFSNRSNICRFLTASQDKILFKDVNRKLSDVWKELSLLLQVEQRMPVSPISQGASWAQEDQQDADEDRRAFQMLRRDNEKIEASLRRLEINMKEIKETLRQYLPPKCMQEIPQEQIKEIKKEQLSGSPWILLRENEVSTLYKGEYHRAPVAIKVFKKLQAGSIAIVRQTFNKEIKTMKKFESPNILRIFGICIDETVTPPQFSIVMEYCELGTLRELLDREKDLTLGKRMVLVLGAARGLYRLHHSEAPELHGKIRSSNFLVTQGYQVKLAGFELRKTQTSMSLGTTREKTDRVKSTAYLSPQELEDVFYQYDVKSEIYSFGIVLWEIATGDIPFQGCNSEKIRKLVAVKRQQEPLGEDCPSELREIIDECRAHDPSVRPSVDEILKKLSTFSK
UniProt Q96RN5: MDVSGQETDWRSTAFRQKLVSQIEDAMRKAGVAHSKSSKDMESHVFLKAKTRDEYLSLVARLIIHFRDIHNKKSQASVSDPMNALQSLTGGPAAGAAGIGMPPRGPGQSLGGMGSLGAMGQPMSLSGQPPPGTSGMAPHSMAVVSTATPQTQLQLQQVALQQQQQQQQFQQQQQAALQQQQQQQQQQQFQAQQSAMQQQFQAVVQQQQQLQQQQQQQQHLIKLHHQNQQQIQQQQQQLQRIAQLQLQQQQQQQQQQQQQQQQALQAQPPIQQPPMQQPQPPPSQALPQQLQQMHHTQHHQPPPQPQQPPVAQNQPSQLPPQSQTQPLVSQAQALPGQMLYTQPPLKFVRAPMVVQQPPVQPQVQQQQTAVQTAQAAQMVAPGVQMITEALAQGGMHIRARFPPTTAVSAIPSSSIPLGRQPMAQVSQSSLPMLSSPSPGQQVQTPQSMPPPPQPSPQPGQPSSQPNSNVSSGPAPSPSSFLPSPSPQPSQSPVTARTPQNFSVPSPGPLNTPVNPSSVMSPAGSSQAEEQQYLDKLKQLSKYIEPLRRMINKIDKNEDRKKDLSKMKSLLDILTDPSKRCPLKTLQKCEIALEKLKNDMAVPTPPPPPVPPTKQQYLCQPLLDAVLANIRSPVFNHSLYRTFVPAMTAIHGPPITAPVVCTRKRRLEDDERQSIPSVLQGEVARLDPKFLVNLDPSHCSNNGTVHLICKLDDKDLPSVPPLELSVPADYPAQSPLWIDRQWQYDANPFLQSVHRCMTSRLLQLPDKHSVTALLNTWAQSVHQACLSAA
UniProt Q9UHV7: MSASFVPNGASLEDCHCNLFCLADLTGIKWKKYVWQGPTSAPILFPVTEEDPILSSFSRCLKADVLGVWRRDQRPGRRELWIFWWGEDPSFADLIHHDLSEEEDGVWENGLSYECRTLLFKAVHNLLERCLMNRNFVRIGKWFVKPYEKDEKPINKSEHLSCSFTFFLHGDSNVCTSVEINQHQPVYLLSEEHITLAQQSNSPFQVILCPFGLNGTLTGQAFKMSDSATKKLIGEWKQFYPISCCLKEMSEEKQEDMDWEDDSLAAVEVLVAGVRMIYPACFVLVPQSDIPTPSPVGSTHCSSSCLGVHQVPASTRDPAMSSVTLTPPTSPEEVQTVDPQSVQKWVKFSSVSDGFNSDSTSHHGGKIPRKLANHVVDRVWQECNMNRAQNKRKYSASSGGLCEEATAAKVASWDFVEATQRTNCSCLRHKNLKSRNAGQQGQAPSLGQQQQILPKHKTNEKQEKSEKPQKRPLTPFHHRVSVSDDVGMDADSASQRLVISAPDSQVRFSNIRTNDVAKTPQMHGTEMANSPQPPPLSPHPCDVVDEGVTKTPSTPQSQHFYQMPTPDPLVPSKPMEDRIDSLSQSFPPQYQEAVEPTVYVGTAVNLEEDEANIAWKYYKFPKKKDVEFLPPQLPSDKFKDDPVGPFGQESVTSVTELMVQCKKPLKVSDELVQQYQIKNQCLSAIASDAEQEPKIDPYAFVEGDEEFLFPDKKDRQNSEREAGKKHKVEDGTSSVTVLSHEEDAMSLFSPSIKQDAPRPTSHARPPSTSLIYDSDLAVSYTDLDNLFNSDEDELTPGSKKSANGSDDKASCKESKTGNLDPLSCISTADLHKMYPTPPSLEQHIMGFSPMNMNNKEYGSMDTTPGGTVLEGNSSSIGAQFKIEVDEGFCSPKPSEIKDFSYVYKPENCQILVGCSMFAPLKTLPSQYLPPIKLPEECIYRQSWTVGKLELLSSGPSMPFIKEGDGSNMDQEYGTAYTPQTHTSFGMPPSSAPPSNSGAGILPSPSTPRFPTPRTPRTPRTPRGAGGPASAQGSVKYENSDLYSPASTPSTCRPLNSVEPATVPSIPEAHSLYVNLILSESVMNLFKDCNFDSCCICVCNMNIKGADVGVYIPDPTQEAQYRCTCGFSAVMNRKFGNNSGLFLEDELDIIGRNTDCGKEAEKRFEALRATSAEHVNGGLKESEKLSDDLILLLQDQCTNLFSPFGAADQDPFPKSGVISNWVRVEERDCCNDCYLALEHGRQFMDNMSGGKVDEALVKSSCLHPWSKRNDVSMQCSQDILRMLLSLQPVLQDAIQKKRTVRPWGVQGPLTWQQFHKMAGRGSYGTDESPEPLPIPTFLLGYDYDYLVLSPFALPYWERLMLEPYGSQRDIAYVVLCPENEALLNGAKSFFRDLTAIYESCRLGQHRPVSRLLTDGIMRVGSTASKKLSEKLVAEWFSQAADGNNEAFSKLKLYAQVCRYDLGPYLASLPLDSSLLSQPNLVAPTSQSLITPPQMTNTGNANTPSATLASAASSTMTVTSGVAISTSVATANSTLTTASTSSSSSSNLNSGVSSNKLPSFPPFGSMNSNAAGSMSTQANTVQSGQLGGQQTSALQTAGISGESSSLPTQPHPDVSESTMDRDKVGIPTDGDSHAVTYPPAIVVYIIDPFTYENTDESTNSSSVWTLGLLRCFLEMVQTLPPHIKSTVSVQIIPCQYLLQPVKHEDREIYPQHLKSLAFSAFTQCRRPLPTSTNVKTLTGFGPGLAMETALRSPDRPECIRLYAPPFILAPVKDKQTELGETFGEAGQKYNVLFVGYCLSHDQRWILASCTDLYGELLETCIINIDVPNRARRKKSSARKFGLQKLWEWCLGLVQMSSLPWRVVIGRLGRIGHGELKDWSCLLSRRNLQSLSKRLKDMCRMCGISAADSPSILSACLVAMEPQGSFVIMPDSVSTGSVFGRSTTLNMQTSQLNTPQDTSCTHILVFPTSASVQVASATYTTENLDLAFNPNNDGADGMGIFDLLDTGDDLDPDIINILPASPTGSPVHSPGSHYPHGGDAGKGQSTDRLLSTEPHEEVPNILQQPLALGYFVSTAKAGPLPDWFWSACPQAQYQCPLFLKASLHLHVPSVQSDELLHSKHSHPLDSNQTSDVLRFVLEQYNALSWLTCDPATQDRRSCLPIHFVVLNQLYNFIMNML

Some of the results follow.

Compound in this assay: COc1ccc(Cn2ccc3cc(C)c(C(=O)NO)cc32)cc1
Briefly: dose-dependent thermal stabilisation call (2D-TPP, DLPTP, 10% FDR) (binary (1 = stabilised)); higher = stabilised by the compound. Conditions: system: HL-60 intact cells; concentration range 0.04-10 µM. How it is done: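 2D thermal proteome profiling in intact HL-60 cells treated with BRD-3811 (0, 0.04, 0.29, 2, 10 uM) for 90 min at 37 C, then heated 3 min at one of 12 temperatures (42-63.9 C). Soluble protein was quantified by TMT10 MS. The value is the DLPTP call of the paper: dose-dependent thermal stabilisation over all temperatures at 10% FDR (F-test of a dose-response against a flat model); one experiment, one call per tested protein.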
As to MRRF (UniProt Q96E11), the “dose-dependent thermal stabilisation call” value was inactive: 0.

Consider METTL5 (UniProt Q9NRN9), for which the “dose-dependent thermal stabilisation call” value was inactive: 0.

Take MMACHC (UniProt Q9Y4U1): the “dose-dependent thermal stabilisation call” value was inactive: 0.

Regarding MVK (UniProt Q03426), the “dose-dependent thermal stabilisation call” value is inactive: 0.

Take MLEC (UniProt Q14165): the “dose-dependent thermal stabilisation call” value is inactive: 0.

As to MRPL19 (UniProt P49406), the “dose-dependent thermal stabilisation call” value was inactive: 0.

In the case of MRPL13 (UniProt Q9BYD1), the “dose-dependent thermal stabilisation call” value was inactive: 0.

MRPL48 (UniProt Q96GC5): the “dose-dependent thermal stabilisation call” value was inactive: 0.

As for MED22 (UniProt Q15528), the “dose-dependent thermal stabilisation call” value was inactive: 0.

Regarding MRPS22 (UniProt P82650), the “dose-dependent thermal stabilisation call” value was inactive: 0.

For the target MOBKL1B (UniProt Q9H8S9), the “dose-dependent thermal stabilisation call” value is inactive: 0.

For MECP2 (UniProt P51608), the “dose-dependent thermal stabilisation call” value was inactive: 0.

In the case of MRPL3 (UniProt P09001), the “dose-dependent thermal stabilisation call” value was inactive: 0.

MORF4L1 (UniProt Q9UBU8): the “dose-dependent thermal stabilisation call” value is inactive: 0.

On to MLLT4 (UniProt P55196), for which the “dose-dependent thermal stabilisation call” value is inactive: 0.

In the case of MOCS3 (UniProt O95396), the “dose-dependent thermal stabilisation call” value was inactive: 0.

As for MRPL49 (UniProt Q13405), the “dose-dependent thermal stabilisation call” value was inactive: 0.

Take MXRA7 (UniProt P84157): the “dose-dependent thermal stabilisation call” value was inactive: 0.

With MRPS36 (UniProt P82909), the “dose-dependent thermal stabilisation call” value is inactive: 0.

For the target MTX2 (UniProt O75431), the “dose-dependent thermal stabilisation call” value was inactive: 0.

Consider METT10D (UniProt Q86W50), for which the “dose-dependent thermal stabilisation call” value is inactive: 0.

Turning to MON2 (UniProt Q7Z3U7), the “dose-dependent thermal stabilisation call” value is inactive: 0.

Consider MRPS24 (UniProt Q96EL2), for which the “dose-dependent thermal stabilisation call” value was inactive: 0.

Regarding MFSD8 (UniProt Q8NHS3), the “dose-dependent thermal stabilisation call” value was inactive: 0.

As to MGAT4B (UniProt Q9UQ53), the “dose-dependent thermal stabilisation call” value is inactive: 0.

Take MRPL4 (UniProt Q9BYD3): the “dose-dependent thermal stabilisation call” value was inactive: 0.

With MRM1 (UniProt Q6IN84), the “dose-dependent thermal stabilisation call” value is inactive: 0.

MLKL (UniProt Q8NB16): the “dose-dependent thermal stabilisation call” value was inactive: 0.

For MTFMT (UniProt Q96DP5), the “dose-dependent thermal stabilisation call” value is inactive: 0.

Take MRPL11 (UniProt Q9Y3B7): the “dose-dependent thermal stabilisation call” value is inactive: 0.

In the case of MKRN2 (UniProt Q9H000), the “dose-dependent thermal stabilisation call” value is inactive: 0.

As for MGC52424, the “dose-dependent thermal stabilisation call” value is inactive: 0.

MLF1IP (UniProt Q71F23): the “dose-dependent thermal stabilisation call” value is inactive: 0.

Regarding MOV10 (UniProt Q9HCE1), the “dose-dependent thermal stabilisation call” value is inactive: 0.

For MED15 (UniProt Q96RN5), the “dose-dependent thermal stabilisation call” value was inactive: 0.

Turning to MED13 (UniProt Q9UHV7), the “dose-dependent thermal stabilisation call” value is inactive: 0.
